In patent US12582637B2, “Topical formulation for intradermal application and uses thereof” (Arctic Therapeutics hf, priority 2018, dated 2026):

Settings: F34 vs F20, FIGS. 4-6

**Q.** For COc1cc2c(cc1OC)C(=O)C(CC1CCN(Cc3ccccc3)CC1)C2 (stereo not shown) [Donepezil base], which “crossing the skin, donepezil base versus donepezil HCL” value is on record?
**A.** Its value is “tended to cross the skin more readily”.
